Source: patent US20030027338A1 (BROOKHAVEN SCIENCE ASSOCIATES, published 2003)
These are yes or no findings as the source states them, for the method shown. Some results given as binding are weak or reduced against the parent protein; the word gives no strength. For part of these data: Where a sequence is shown, tags or fusion partners need not be part of it.

Protein sequences, listed by entry. Tags and fused reporters are not part of them. Lines headed by an entry give the natural chain unless they say otherwise; changes in a name come on top. Chains listed by the source or under a name are the forms on record and can include a tag or linker. Residues count along the entry.
CARD1 as crystallised in the Ad12 knob-CARD1 complex (trypsin-treated) (P78310, residues 22-144): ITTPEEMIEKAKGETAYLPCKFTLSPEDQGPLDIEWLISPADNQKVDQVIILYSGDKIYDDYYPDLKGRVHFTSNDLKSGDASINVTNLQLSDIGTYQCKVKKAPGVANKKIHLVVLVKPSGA
his-tagged D1 (refolded amino-terminal IgV domain of human CAR) (P78310, form named): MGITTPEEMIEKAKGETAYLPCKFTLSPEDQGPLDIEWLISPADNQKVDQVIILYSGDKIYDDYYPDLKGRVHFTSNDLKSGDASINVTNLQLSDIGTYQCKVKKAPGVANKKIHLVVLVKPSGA

Tests used:
[1] = biological target: his-tagged D1 (refolded amino-terminal IgV domain of human CAR) (human) (UniProt P78310); assay: Superose 6 gel filtration of knob mixed with refolded D1
[2] = biological target: his-tagged D1 (refolded amino-terminal IgV domain of human CAR) (human) (UniProt P78310); assay: Ni-NTA pull-down with his-tagged D1, SDS-PAGE of bead eluate
[3] = biological target: CARD1 as crystallised in the Ad12 knob-CARD1 complex (trypsin-treated) (human) (UniProt P78310); assay: complex formed from trypsin-treated proteins, purified by anion exchange and crystallised

| Binder | binding [1] | binding [2] | binding [3] |
| --- | --- | --- | --- |
| Ad12 knob (recombinant adenovirus type 12 fiber knob domain, his-tag removed by thrombin) (other, range 401-587; Expressed from pET15b in E. coli; The hexahistidine tag was cleaved with thrombin; Trimer by SDS-PAGE, STEM (60.6 kDa) and gel filtration; also called Ad12 fiber knob) SNTPYDPLTLWTTPDPPPNCSLIQELDAKLTLCLTKNGSIVNGIVSLVGVKGNLLNIQSTTTTVGVHLVFDEQGRLITSTPTALVPQASWGYRQGQSVSTNTVTNGLGFMPNVSAYPRPNASEAKSQMVSLTYLQGDTSKPITMKVAFNGITSLNGYSLTFMWSGLSNYINQPFSTPSCSFSYITQE | binds | binds |  |
| Ad12 knob as crystallised in the Ad12 knob-CARD1 complex (trypsin-treated) (protein) SNTPYDPLTLWTTPDPPPNCSLIQELDAKLTLCLTKNGSIVNGIVSLVGVKGNLLNIQSTTTTVGVHLVFDEQGRLITSTPTALVPQASWGYRQGQSVSTNTVTNGLGFMPNVSAYPRPNASEAKSQMVSLTYLQGDTSKPITMKVAFNGITSLNGYSLTFMWSGLSNYINQPFSTPSCSFSYITQE |  |  | binds |
